{"source": "patent US12491246B2", "about": "“Combination therapy of arms and natural killer cells” (KLEO PHARMACEUTICALS, INC., priority 2018, dated 2025)", "key": {"[1]": {"tested_on": "SUDHL-4 cells", "assay": "CIML NK cell SUDHL-4 cell ADCC assay", "type": "cell-based, human", "conditions": "CIML NK cells in combination with the CD38 ARM; NK:target 9:1; 18 hours; over DMSO-treated control"}, "[2]": {"tested_on": "multiple myeloma patient bone marrow plasma cells (CD38+CD138+)", "assay": "Patient bone marrow plasma cell depletion with autologous CIML NK cells", "type": "cell-based, human", "conditions": "4 hr incubation with autologous patient CIML NK cells; vs untreated bone marrow with CIML NK cells; FIG. 3"}}, "note": "At least one peptide structure holds a part that was inferred or is arguable (an end, a ring closure or a residue).", "data": [{"smiles": "CCCCC[C@@H]1NC(=O)[C@H](CCCNC(=N)N)NC(=O)[C@H](C)NC(=O)CSC[C@@H](C(=O)NCCOCCOCCOCCOCCOCCOCCn2nnc3c2CCC2C(CC3)C2COC(=O)N2CCC(C(=O)NCC(=O)N[C@H](CCC(=O)N[C@H](CCC(=O)N[C@H](CCC(=O)O)C(=O)N[C@H](CCC(=O)N[C@H](CCC(=O)NCC(=O)NCC(=O)N[C@@H](CC(=O)O)C(=O)N[C@H]3CSSC[C@@H](C(=O)N[C@H](C(=O)O)[C@@H](C)O)NC(=O)[C@H](Cc4c[nH]c5ccccc45)NC(=O)[C@H](C(C)C)NC(=O)[C@H](CC(C)C)NC(=O)[C@H](CCC(=O)O)NC(=O)CNC(=O)[C@H](CC(C)C)NC(=O)[C@H](Cc4c[nH]cn4)NC(=O)[C@H](Cc4c[nH]c5ccccc45)NC(=O)[C@H](C)NC3=O)C(=O)O)C(=O)O)C(=O)O)C(=O)O)CC2)NC(=O)[C@H](CC(=O)O)NC(=O)[C@H](CCCCC)NC(=O)[C@H](Cc2ccc(-c3ccccc3)cc2)NC(=O)[C@H](CC(C)C)NC(=O)[C@H](C(C)C)NC(=O)CNC(=O)[C@H](CC(=O)O)NC(=O)[C@H](Cc2c[nH]cn2)NC(=O)[C@H](Cc2ccc(O)cc2)NC1=O", "note": "(some centres unmarked) [CD38 ARM]", "values": [{"measurement": "increase in killing of SUDHL-4 target cells over background", "setting": "[1]", "result": 66, "unit": "%"}, {"measurement": "reduction in the frequencies of CD38+CD138+ cells in patient bone marrow", "setting": "[2]", "result": "effectively reduced frequency of plasma cells"}]}]}
